Only results without a clear call are listed here; the source files them as inconclusive. No rule for the calls is given here.
Test: rescue of alpha-synuclein yeast toxicity, dose response, S. cerevisiae, plate reader, cherry-pick (AID 602273)
Settings: OD600 growth, 24 h; at 26 µM (top of the series)

| SMILES | growth rescue activity |
| --- | --- |
| CN(c1ccccc1)c1nc(N)c([N+](=O)[O-])c(N2CCCCCC2)n1 | inconclusive: 11.6% |
| Cc1cccnc1Nc1nc(-c2ccccn2)cs1 | inconclusive: -21.1% |

From PubChem BioAssay AID602273 (Broad Institute, 2012)
